From publication PMC5666514 (Chemical Science, 2015) come the findings set out here.

HELM strings list residues between dots; [ac] is acetyl, [am] amide, other brackets name non-standard units.

The data set is described as follows: general procedure: peptide synthesis; 2-chlorotrityl chloride resin loaded with Fmoc-1,2-ethylenediamine·HCl (0.7 mmol/g); COMU/OxymaPure/DIEA; PyBOP/HOAt/DIEA for 2-quinoxalinecarboxylic acid in solutio. The following applies: whole synthesis; for isolated yield: overall.

“PEPTIDE1{[Qxn].S.[Abu].V.I.[dP].G.I.V.[Abu].[EDA-Qxn]}$$$$V2.0”: the isolated yield is on record as 7%.

On to “PEPTIDE1{[Qxn].S.[Abu].V.T.[dP].G.T.V.[Abu].[EDA-Qxn]}$$$$V2.0”, for which the isolated yield was 0.2%.

Substance “PEPTIDE1{[Qxn].S.[Abu].V.V.[dP].G.V.V.[Abu].[EDA-Qxn]}$$$$V2.0” showed an isolated yield of 12.1%.

The substance “PEPTIDE1{[Qxn].S.[NMeAbu].[NMeVal].V.[dP].G.V.[NMeVal].[NMeAbu].[EDA-Qxn]}$$$$V2.0” came in with a crude yield of 99.5% yield. Further, the “crude HPLC purity” value (analytical HPLC) is 72% purity. Where the note is “scale 0.1 mmol”, this substance came in with an isolated yield of 15% overall yield and an isolated mass of 19.6 mg.

The substance “PEPTIDE1{[Qxn].[Dap(CF)].[Abu].V.V.[dP].G.V.V.[Abu].[EDA-Qxn]}$$$$V2.0” displayed an isolated yield of 5.3%.

With “PEPTIDE1{[Qxn].[dS].[Abu].V.V.[dP].G.V.V.[Abu].[EDA-Qxn]}$$$$V2.0”, the isolated yield is 1.5%.

Take “PEPTIDE1{[Qxn].[dS].[NMeAbu].[NMeVal].V.[dP].G.V.[NMeVal].[NMeAbu].[EDA-Qxn]}$$$$V2.0”: the isolated yield is reported as 0.5%.
